Data as given in PubChem BioAssay AID1259405 (NCATS, 2018)
The deposit covers about 50,000 reagents; below is a random part of them. Over the whole deposit, about 4,000 (8%) are marked active. 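Mouse siRNA library applied to hamster cells; one well for each siRNA.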 The numbers tell different reagents against one gene apart. Reagent sequences are not shown.

Purpose: 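Knock-downs that lift recombinant protein yield in hamster ovary cells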 (primary screen)
System: Chinese hamster CHO-K1 ovary cells with stable secreted eGFP expression
Reagent: single siRNA against mouse genes, 0.8 pmol siRNA per well (2 µl of 400 nM stock)
Time to read-out: 3 days
Read-out: 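Percent of the per-plate non-targeting control median for intracellular GFP per well by laser scanning cytometry and for cell viability by ATP luminescence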
Reading the numbers: GFP, % of control: higher = more GFP per well, higher productivity; viability (ATP), % of control: higher = more viable cells (more ATP)
Call rule: 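a knock-down is called active if GFP reaches 120% or more of non-targeting control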

The first 8 entries as a preview:
| gene | reagent | GFP, % of control | viability (ATP), % of control | Call |
| --- | --- | --- | --- | --- |
| Vopp1 (vesicular, overexpressed in cancer, prosurvival protein 1) | 1 | 61.6 | 62.3 | inactive |
| Vopp1 (vesicular, overexpressed in cancer, prosurvival protein 1) | 2 | 65.5 | 77.9 | inactive |
| Vopp1 (vesicular, overexpressed in cancer, prosurvival protein 1) | 3 | 103 | 91.1 | inactive |
| Sardh (sarcosine dehydrogenase) | 1 | 77.3 | 95.9 | inactive |
| Sardh (sarcosine dehydrogenase) | 2 | 104 | 65.8 | inactive |
| Sardh (sarcosine dehydrogenase) | 3 | 59.6 | 69.4 | inactive |
| Tcp1 (t-complex protein 1) | 1 | 69.1 | 58 | inactive |
| Tcp1 (t-complex protein 1) | 2 | 87.7 | 50.7 | inactive |

Main list, from the start:
| gene | reagent | GFP, % of control | viability (ATP), % of control | Call |
| --- | --- | --- | --- | --- |
| Vopp1 (vesicular, overexpressed in cancer, prosurvival protein 1) | 1 | 61.6 | 62.3 | inactive |
| Vopp1 (vesicular, overexpressed in cancer, prosurvival protein 1) | 2 | 65.5 | 77.9 | inactive |
| Vopp1 (vesicular, overexpressed in cancer, prosurvival protein 1) | 3 | 103 | 91.1 | inactive |
| Sardh (sarcosine dehydrogenase) | 1 | 77.3 | 95.9 | inactive |
| Sardh (sarcosine dehydrogenase) | 2 | 104 | 65.8 | inactive |
| Sardh (sarcosine dehydrogenase) | 3 | 59.6 | 69.4 | inactive |
| Tcp1 (t-complex protein 1) | 1 | 69.1 | 58 | inactive |
| Tcp1 (t-complex protein 1) | 2 | 87.7 | 50.7 | inactive |
| Tcp1 (t-complex protein 1) | 3 | 78.7 | 50.4 | inactive |
| Tcaim (T cell activation inhibitor, mitochondrial) | 1 | 56.8 | 82.7 | inactive |
| Tcaim (T cell activation inhibitor, mitochondrial) | 2 | 93.9 | 103 | inactive |
| Tcaim (T cell activation inhibitor, mitochondrial) | 3 | 98.5 | 98.9 | inactive |
| Kcnk3 (potassium channel, subfamily K, member 3) | 1 | 100 | 99.4 | inactive |
| Kcnk3 (potassium channel, subfamily K, member 3) | 2 | 149 | 87.5 | active |
| Kcnk3 (potassium channel, subfamily K, member 3) | 3 | 98 | 88.7 | inactive |
| Creb3 (cAMP responsive element binding protein 3) | 1 | 34.6 | 53.7 | inactive |
| Creb3 (cAMP responsive element binding protein 3) | 2 | 68.6 | 61.7 | inactive |
| Creb3 (cAMP responsive element binding protein 3) | 3 | 106 | 104 | inactive |
| Rnmt (RNA (guanine-7-) methyltransferase) | 1 | 102 | 121 | inactive |
| Rnmt (RNA (guanine-7-) methyltransferase) | 2 | 66.5 | 97.5 | inactive |
| Or6c213 (olfactory receptor family 6 subfamily C member 213) | 1 | 73.8 | 68.1 | inactive |
| Or6c213 (olfactory receptor family 6 subfamily C member 213) | 2 | 60.8 | 63 | inactive |
| Or6c213 (olfactory receptor family 6 subfamily C member 213) | 3 | 57.5 | 97.1 | inactive |
| Foxj2 (forkhead box J2) | 1 | 120 | 115 | inactive |
| Foxj2 (forkhead box J2) | 2 | 65.4 | 69.3 | inactive |
| Rnf167 (ring finger protein 167) | 1 | 89.5 | 70.6 | inactive |
| Rnf167 (ring finger protein 167) | 2 | 33.1 | 51.6 | inactive |
| Rnf167 (ring finger protein 167) | 3 | 74.7 | 62.2 | inactive |
| Hba-a1 (hemoglobin alpha, adult chain 1) | 1 | 53 | 41.4 | inactive |
| Hba-a1 (hemoglobin alpha, adult chain 1) | 2 | 78 | 64.8 | inactive |
| Hba-a1 (hemoglobin alpha, adult chain 1) | 3 | 109 | 81.4 | inactive |
| Sema3b | 1 | 54.8 | 77 | inactive |
| Sema3b | 2 | 59.8 | 40.5 | inactive |
| Sema3b | 3 | 71.3 | 37.9 | inactive |
| Grin3b (glutamate receptor, ionotropic, NMDA3B) | 1 | 78.3 | 83.9 | inactive |
| Grin3b (glutamate receptor, ionotropic, NMDA3B) | 2 | 53.9 | 63.1 | inactive |
| Grin3b (glutamate receptor, ionotropic, NMDA3B) | 3 | 124 | 87.7 | active |
| 1700020N01Rik (RIKEN cDNA 1700020N01 gene) | 1 | 63.4 | 54.5 | inactive |
| 1700020N01Rik (RIKEN cDNA 1700020N01 gene) | 2 | 55.5 | 63.5 | inactive |
| 1700020N01Rik (RIKEN cDNA 1700020N01 gene) | 3 | 95.6 | 90.3 | inactive |
| Ogt | 1 | 48.9 | 58 | inactive |
| Ogt | 2 | 43.9 | 73.8 | inactive |
| Ogt | 3 | 51.7 | 56.7 | inactive |
| H2-Q6 (histocompatibility 2, Q region locus 6) | 1 | 20.7 | 36.2 | inactive |
| H2-Q6 (histocompatibility 2, Q region locus 6) | 2 | 65.2 | 61.2 | inactive |
| H2-Q6 (histocompatibility 2, Q region locus 6) | 3 | 67.3 | 46.2 | inactive |
| Pou6f2 (POU domain, class 6, transcription factor 2) | 1 | 89 | 81.5 | inactive |
| Pou6f2 (POU domain, class 6, transcription factor 2) | 2 | 74.9 | 51.4 | inactive |
| Pou6f2 (POU domain, class 6, transcription factor 2) | 3 | 73.7 | 75.1 | inactive |
| Rnf20 (ring finger protein 20) | 1 | 72.6 | 67.3 | inactive |
| Rnf20 (ring finger protein 20) | 2 | 123 | 74.3 | active |
| Rnf20 (ring finger protein 20) | 3 | 70.1 | 58.1 | inactive |
| Zfp946 (zinc finger protein 946) | 1 | 103 | 74.8 | inactive |
| Zfp946 (zinc finger protein 946) | 2 | 89.5 | 87.3 | inactive |
| Zfp946 (zinc finger protein 946) | 3 | 72.4 | 78.1 | inactive |
| Smoc1 (SPARC related modular calcium binding 1) | 1 | 68.4 | 84.8 | inactive |
| Smoc1 (SPARC related modular calcium binding 1) | 2 | 71.1 | 69 | inactive |
| Smoc1 (SPARC related modular calcium binding 1) | 3 | 73.7 | 65.5 | inactive |
| Khdrbs2 | 1 | 52.8 | 56 | inactive |
| Khdrbs2 | 2 | 95.7 | 105 | inactive |
| Khdrbs2 | 3 | 35.3 | 31.5 | inactive |
| Fbn2 (fibrillin 2) | 1 | 93.3 | 120 | inactive |
| Fbn2 (fibrillin 2) | 2 | 29.9 | 62.1 | inactive |
| Dgcr6 (DiGeorge syndrome critical region gene 6) | 1 | 57.4 | 76.8 | inactive |
| Dgcr6 (DiGeorge syndrome critical region gene 6) | 2 | 37.7 | 29.2 | inactive |
| Dgcr6 (DiGeorge syndrome critical region gene 6) | 3 | 117 | 96.5 | inactive |
| Tle6 (transducin-like enhancer of split 6) | 1 | 108 | 61.4 | inactive |
| Tle6 (transducin-like enhancer of split 6) | 2 | 88.6 | 119 | inactive |
| Tle6 (transducin-like enhancer of split 6) | 3 | 115 | 69.8 | inactive |
| Tmigd1 (transmembrane and immunoglobulin domain containing 1) | 1 | 71.9 | 100 | inactive |
| Tmigd1 (transmembrane and immunoglobulin domain containing 1) | 2 | 72.3 | 82.1 | inactive |
| Tmigd1 (transmembrane and immunoglobulin domain containing 1) | 3 | 74.9 | 95.9 | inactive |
| Mllt11 | 1 | 47.3 | 66.5 | inactive |
| Mllt11 | 2 | 85.2 | 81.5 | inactive |
| Mllt11 | 3 | 56.5 | 62.4 | inactive |
| Arv1 (ARV1 homolog, fatty acid homeostasis modulator) | 1 | 82.5 | 130 | inactive |
| Arv1 (ARV1 homolog, fatty acid homeostasis modulator) | 2 | 103 | 96.2 | inactive |
| Arv1 (ARV1 homolog, fatty acid homeostasis modulator) | 3 | 89.7 | 66.2 | inactive |
| Or51b17 (olfactory receptor family 51 subfamily B member 17) | 1 | 66.1 | 60.3 | inactive |
| Or51b17 (olfactory receptor family 51 subfamily B member 17) | 2 | 73.7 | 62 | inactive |
| Or51b17 (olfactory receptor family 51 subfamily B member 17) | 3 | 52.4 | 40 | inactive |
| Cyp2b10 (cytochrome P450, family 2, subfamily b, polypeptide 10) | 1 | 115 | 117 | inactive |
| Cyp2b10 (cytochrome P450, family 2, subfamily b, polypeptide 10) | 2 | 92.8 | 91.9 | inactive |
| Cyp2b10 (cytochrome P450, family 2, subfamily b, polypeptide 10) | 3 | 106 | 63.5 | inactive |
